Results: PubChem BioAssay AID248 (DTP/NCI, 2004)
The list shows only some results of the screen, not a fair sample: it gathers tests that were run many times, whatever their T/C, doses with no T/C, and many T/C values between a quarter and a half above the control. Further doses and runs are listed elsewhere. T/C gives the treated animals as a percentage of the vehicle group. Some doses have a count of surviving animals in place of a T/C: the source holds a T/C of zero for them, seemingly a mark for toxic or unscored doses. Some doses without a T/C left all or most animals alive at the check, yet need not have been tolerated: the source hardly ever lists a survival T/C far under the control, and the zero likely stands for such cases as well. Survivors were counted at the toxicity check, usually on the fifth day, unless a day is given; later deaths do not show. Schedule codes are those of the source, taken here to give the interval after Q, in days (D) or hours (H), and the number of doses after X. Some entries hold several experiments; the results are listed from low to high. Some schedules carry Z or #; the key to these is not given. Some molecules as drawn cover several salts, stereoisomers or complexes of the source; a dose is that of the sample tested.

System: L1210 leukemia ip in BDF1 mice, survival T/C
Test: NCI In Vivo Anticancer Drug Screen. Data for tumor model L1210 Leukemia (intraperitoneal) in B6D2F1 (BDF1) mice
Settings: higher T/C = longer survival
[1] = T/C endpoint: mean survival time, dose: 400.0 mg/kg/injection, schedule: Q01DX001 (ip), vehicle: carboxymethylcellulose (CMC)
[2] = T/C endpoint: mean survival time, dose: 100.0 mg/kg/injection, schedule: Q01DX001 (ip), vehicle: saline
[3] = T/C endpoint: mean survival time, dose: 200.0 mg/kg/injection, schedule: Q01DX001 (ip), vehicle: saline
[4] = T/C endpoint: mean survival time, dose: 400.0 mg/kg/injection, schedule: Q01DX001 (ip), vehicle: saline

Structure (SMILES): CC1C[N-]1.CC1C[N-]1.[Cl][Pt+2][Cl] (stereo unspecified)
- survivor count (T/C endpoint: mean survival time, dose: 200.0 mg/kg/injection, schedule: Q01DX009 (ip), vehicle: saline): 0 of 6
- survivor count (T/C endpoint: mean survival time, dose: 400.0 mg/kg/injection, schedule: Q04DX003 (ip), vehicle: saline): 0 of 6

Structure (SMILES): CSC1=[N+](C)CCS1
- survivor count (T/C endpoint: mean survival time, dose: 300.0 mg/kg/injection, schedule: Q01DX001 (ip), vehicle: saline): 0 of 6
- survivor count (T/C endpoint: mean survival time, dose: 300.0 mg/kg/injection, schedule: Q04DX003 (ip), vehicle: saline with Tween-80): 0 of 6
- survivor count (T/C endpoint: mean survival time, dose: 350.0 mg/kg/injection, schedule: Q01DX009 (ip), vehicle: saline): 0 of 6

Structure (SMILES): COC(=O)C(C)NC(=O)C(C)NC(=O)c1cnc2ccccc2n1 (stereo unspecified)
- survivor count [1]: 3 of 6

Structure (SMILES): FC1(F)SC2CCCCCCC2C1(F)F (stereo unspecified)
- survivor count (T/C endpoint: mean survival time, dose: 100.0 mg/kg/injection, schedule: Q04DX003 (ip), vehicle: Klucel (hydroxypropylcellulose) (HPC)): 0 of 6
- survivor count (T/C endpoint: mean survival time, dose: 200.0 mg/kg/injection, schedule: Q04DX003 (ip), vehicle: Klucel (hydroxypropylcellulose) (HPC)): 0 of 6
- survivor count (T/C endpoint: mean survival time, dose: 400.0 mg/kg/injection, schedule: Q04DX003 (ip), vehicle: Klucel (hydroxypropylcellulose) (HPC)): 0 of 6

Structure (SMILES): CN(C)c1ccc(N2C(=O)C=CC2=O)cc1
- survivor count (T/C endpoint: mean survival time, dose: 25.0 mg/kg/injection, schedule: Q01DX001 (ip), vehicle: saline with Tween-80): 2 of 6

Structure (SMILES): COC1=C(Br)C(=O)c2ncccc2C1=O
- survivor count (T/C endpoint: mean survival time, dose: 10.0 mg/kg/injection, schedule: Q01DX001 (ip), vehicle: carboxymethylcellulose (CMC)): 4 of 4
- survivor count (T/C endpoint: mean survival time, dose: 40.0 mg/kg/injection, schedule: Q01DX001 (ip), vehicle: carboxymethylcellulose (CMC)): 0 of 4
- survivor count (T/C endpoint: mean survival time, dose: 50.0 mg/kg/injection, schedule: Q01DX001 (ip), vehicle: carboxymethylcellulose (CMC)): 1 of 4
- survivor count (T/C endpoint: mean survival time, dose: 80.0 mg/kg/injection, schedule: Q01DX001 (ip), vehicle: carboxymethylcellulose (CMC)): 0 of 4
- survivor count (T/C endpoint: mean survival time, dose: 100.0 mg/kg/injection, schedule: Q01DX001 (ip), vehicle: carboxymethylcellulose (CMC)): 0 of 4
- survivor count (T/C endpoint: mean survival time, dose: 200.0 mg/kg/injection, schedule: Q01DX001 (ip), vehicle: carboxymethylcellulose (CMC)): 0 of 4
- survivor count [1]: 0 of 4

Structure (SMILES): COc1cc([C@@H]2c3cc4c(c(O)c3C[C@H]3COC(=O)[C@@H]32)OCO4)cc(OC)c1OC
- survivor count (T/C endpoint: mean survival time, dose: 2.25 mg/kg/injection, schedule: Q01DX Z (ip), vehicle: saline): 7 of 8
- survivor count (T/C endpoint: mean survival time, dose: 3.3 mg/kg/injection, schedule: Q01DX Z (ip), vehicle: saline): 7 of 8
- survivor count (T/C endpoint: mean survival time, dose: 5.0 mg/kg/injection, schedule: Q01DX Z (ip), vehicle: saline): 7 of 8
- survivor count (T/C endpoint: mean survival time, dose: 7.5 mg/kg/injection, schedule: Q01DX Z (ip), vehicle: saline): 6 of 8
- survivor count [2]: 0 of 4 and 0 of 6
- survivor count [3]: 0 of 4
- survivor count [4]: 0 of 4
- survivor count (T/C endpoint: median survival time, dose: 4.0 mg/kg/injection, schedule: Q01DX009 (ip), vehicle: Klucel (hydroxypropylcellulose) (HPC)): 5 of 8

Structure (SMILES): COc1ccc(N=NN(C)C)c(C(=O)O)c1
- survivor count (T/C endpoint: mean survival time, dose: 100.0 mg/kg/injection, schedule: Q01DX009 (ip), vehicle: Klucel (hydroxypropylcellulose) (HPC)): 0 of 6
- survivor count (T/C endpoint: mean survival time, dose: 200.0 mg/kg/injection, schedule: Q01DX009 (ip), vehicle: Klucel (hydroxypropylcellulose) (HPC)): 0 of 6
- survivor count (T/C endpoint: mean survival time, dose: 400.0 mg/kg/injection, schedule: Q01DX009 (ip), vehicle: Klucel (hydroxypropylcellulose) (HPC)): 0 of 6

Structure (SMILES): NC(CSS(=O)(=O)O)=NCCCOCc1ccccc1
- survivor count (T/C endpoint: mean survival time, dose: 50.0 mg/kg/injection, schedule: Q04DX002 (ip), vehicle: Klucel (hydroxypropylcellulose) (HPC)): 0 of 3
- survivor count (T/C endpoint: mean survival time, dose: 100.0 mg/kg/injection, schedule: Q04DX002 (ip), vehicle: Klucel (hydroxypropylcellulose) (HPC)): 1 of 3
- survivor count (T/C endpoint: mean survival time, dose: 200.0 mg/kg/injection, schedule: Q04DX002 (ip), vehicle: Klucel (hydroxypropylcellulose) (HPC)): 0 of 3
- survivor count (T/C endpoint: mean survival time, dose: 400.0 mg/kg/injection, schedule: Q04DX002 (ip), vehicle: Klucel (hydroxypropylcellulose) (HPC)): 0 of 3

Structure (SMILES): CSC(N)=NC1CCCCC1
- survivor count (T/C endpoint: mean survival time, dose: 50.0 mg/kg/injection, schedule: Q04DX002 (ip), vehicle: saline): 1 of 3
- survivor count (T/C endpoint: mean survival time, dose: 100.0 mg/kg/injection, schedule: Q04DX002 (ip), vehicle: saline): 0 of 3
- survivor count (T/C endpoint: mean survival time, dose: 200.0 mg/kg/injection, schedule: Q04DX002 (ip), vehicle: saline): 0 of 3
- survivor count (T/C endpoint: mean survival time, dose: 400.0 mg/kg/injection, schedule: Q04DX002 (ip), vehicle: saline): 0 of 3

Structure (SMILES): CCCCCCCCCCCCCCCCCC[n+]1ccccc1
- survivor count (T/C endpoint: mean survival time, dose: 0.78 mg/kg/injection, schedule: Q01DX009 (ip), vehicle: saline with Tween-80): 2 of 3
- survivor count (T/C endpoint: mean survival time, dose: 1.56 mg/kg/injection, schedule: Q01DX009 (ip), vehicle: saline with Tween-80): 0 of 3
- survivor count (T/C endpoint: mean survival time, dose: 3.12 mg/kg/injection, schedule: Q01DX009 (ip), vehicle: saline with Tween-80): 0 of 3
- survivor count (T/C endpoint: mean survival time, dose: 50.0 mg/kg/injection, schedule: Q01DX009 (ip), vehicle: saline with Tween-80): 0 of 3
- survivor count (T/C endpoint: mean survival time, dose: 100.0 mg/kg/injection, schedule: Q01DX009 (ip), vehicle: saline with Tween-80): 0 of 3
- survivor count (T/C endpoint: mean survival time, dose: 200.0 mg/kg/injection, schedule: Q01DX009 (ip), vehicle: saline with Tween-80): 0 of 3

Structure (SMILES): O=C1C(CO)=C[C@@H](O)[C@H]2O[C@@H]12
- survivor count [2]: 2 of 4
- survivor count [3]: 0 of 4
- survivor count [4]: 0 of 4

Structure (SMILES): COS(=O)(=O)CCC[n+]1ccccc1
- survivor count [4]: 0 of 4

Structure (SMILES): O=C(NCCNCc1ccccc1)c1ccccc1
- survivor count (T/C endpoint: mean survival time, dose: 50.0 mg/kg/injection, schedule: Q01DX009 (ip), vehicle: water): 5 of 6
- survivor count (T/C endpoint: mean survival time, dose: 100.0 mg/kg/injection, schedule: Q01DX009 (ip), vehicle: water): 4 of 6 and 5 of 6
- survivor count (T/C endpoint: mean survival time, dose: 200.0 mg/kg/injection, schedule: Q01DX009 (ip), vehicle: water): 0 of 6
- survivor count (T/C endpoint: mean survival time, dose: 200.0 mg/kg/injection, schedule: Q04DX003 (ip), vehicle: saline with Tween-80): 0 of 6
- survivor count (T/C endpoint: mean survival time, dose: 400.0 mg/kg/injection, schedule: Q04DX003 (ip), vehicle: saline with Tween-80): 0 of 6

Structure (SMILES): CCCCCCCCCCCC(=O)[O][Sn]([CH2]c1ccccc1)([CH2]c1ccccc1)[CH2]c1ccccc1
- survivor count (T/C endpoint: mean survival time, dose: 3.0 mg/kg/injection, schedule: Q01DX009 (ip), vehicle: other): 3 of 6
- survivor count (T/C endpoint: mean survival time, dose: 6.0 mg/kg/injection, schedule: Q01DX009 (ip), vehicle: other): 1 of 6
- survivor count (T/C endpoint: mean survival time, dose: 6.0 mg/kg/injection, schedule: Q04DX004 (ip), vehicle: other): 2 of 6
- survivor count (T/C endpoint: mean survival time, dose: 12.0 mg/kg/injection, schedule: Q01DX009 (ip), vehicle: other): 0 of 6
- survivor count (T/C endpoint: mean survival time, dose: 12.0 mg/kg/injection, schedule: Q04DX004 (ip), vehicle: other): 1 of 6
- survivor count (T/C endpoint: mean survival time, dose: 25.0 mg/kg/injection, schedule: Q01DX009 (ip), vehicle: other): 0 of 6
- survivor count (T/C endpoint: mean survival time, dose: 25.0 mg/kg/injection, schedule: Q04DX003 (ip), vehicle: other): 2 of 6
- survivor count (T/C endpoint: mean survival time, dose: 25.0 mg/kg/injection, schedule: Q04DX004 (ip), vehicle: other): 1 of 6
- survivor count (T/C endpoint: mean survival time, dose: 50.0 mg/kg/injection, schedule: Q01DX009 (ip), vehicle: other): 0 of 6
- survivor count (T/C endpoint: mean survival time, dose: 50.0 mg/kg/injection, schedule: Q04DX003 (ip), vehicle: other): 4 of 6
- survivor count (T/C endpoint: mean survival time, dose: 100.0 mg/kg/injection, schedule: Q01DX009 (ip), vehicle: other): 0 of 6
- survivor count (T/C endpoint: mean survival time, dose: 100.0 mg/kg/injection, schedule: Q04DX003 (ip), vehicle: other): 0 of 6 and 1 of 6
- survivor count (T/C endpoint: mean survival time, dose: 200.0 mg/kg/injection, schedule: Q01DX009 (ip), vehicle: other): 0 of 6
- survivor count (T/C endpoint: mean survival time, dose: 200.0 mg/kg/injection, schedule: Q04DX003 (ip), vehicle: other): 1 of 6
- survivor count (T/C endpoint: mean survival time, dose: 400.0 mg/kg/injection, schedule: Q04DX003 (ip), vehicle: other): 0 of 6
